Measurements reported in PubChem BioAssay AID652243 (Drosophila RNAi Screening Center, 2013)
The deposit covers about 24,000 reagents; below is an unselected part of those that have a named target and a result. Of all reagents, 246 (1%) got an active call. 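Plates not normalised; calls are printed but the firefly/Renilla ratio behind them is not deposited; fold cut for lowering reported inconsistently.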 Raw values are not corrected between plates. A plus sign joins genes that one reagent is predicted to hit. No sequences are given here. Not given: the amount of reagent.

Purpose: 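Knock-downs that decrease or increase androgen receptor reporter signal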 (primary screen)
System: Drosophila S2R+ cells
Reagents: long dsRNA against Drosophila genes
Time to read-out: 72 h (48 h, then 24 h hormone)
Treatment: synthetic androgen R1881 at 10 nM for 24 h
Measurement: 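Per-well raw luminescence of the androgen-driven firefly reporter and of the Renilla control, two replicates each, without normalisation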
Reading the numbers: firefly reporter light: higher = more light from androgen-responsive reporter; Renilla control light: higher = more constitutive control signal (cell number, transfection)
Active means: 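Across duplicate plates, a knock-down whose log firefly/Renilla ratio shifted a set fold down or up from the GFP/LacZ control mean was a hit; the downward cut appears as both 1.5 and 3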
Calls: active = hit: reporter lowered or raised; inactive = no hit

Target gene | DRSC id | firefly reporter light, replicate 1 | firefly reporter light, replicate 2 | Renilla control light, replicate 1 | Renilla control light, replicate 2 | activity call
Osi14 | DRSC12368 | 17665 | 22279 | 7.84e5 | 1.03e6 | inactive
Osi14 | DRSC26397 | 2.47e5 | 2.37e5 | 6.51e5 | 7.47e5 | inactive
Pld3 | DRSC03167 | 9.99e5 | 1.01e6 | 2.81e6 | 2.50e6 | inactive
ND-18 | DRSC19441 | 92582 | 1.08e5 | 4.32e5 | 3.35e5 | inactive
Ekar | DRSC17161 | 2.68e5 | 3.11e5 | 3.66e6 | 2.98e6 | inactive
Ekar | DRSC24931 | 1.10e6 | 1.15e6 | 9.14e5 | 1.27e6 | inactive
Nep1 | DRSC18388 | 95232 | 96197 | 5.98e5 | 6.31e5 | inactive
Nep1 | DRSC26208 | 2.32e5 | 2.55e5 | 5.63e5 | 6.96e5 | inactive
CG17030 | DRSC08503 | 1.48e5 | 2.18e5 | 2.20e6 | 2.61e6 | inactive
CG17233 | DRSC23352 | 7.63e5 | 8.74e5 | 9.54e5 | 9.70e5 | inactive
psh | DRSC19990 | 7.93e5 | 7.04e5 | 3.77e6 | 3.37e6 | inactive
psh | DRSC28534 | 3.04e5 | 3.32e5 | 6.66e5 | 1.24e6 | inactive
Cyt-c1 | DRSC10447 | 9.61e5 | 7.57e5 | 2.32e6 | 1.72e6 | inactive
Cyt-c1 | DRSC29221 | 7.11e5 | 7.04e5 | 1.24e6 | 1.18e6 | inactive
eIF2Balpha | DRSC16332 | 1.92e5 | 1.16e5 | 1.13e6 | 6.85e5 | inactive
AsnRS-m | DRSC07010 | 56355 | 2.48e5 | 9.32e5 | 9.32e5 | inactive
Listericin | DRSC07334 | 4.11e5 | 2.82e5 | 2.03e6 | 2.33e6 | inactive
Listericin | DRSC24374 | 8.48e5 | 6.65e5 | 7.97e5 | 9.23e5 | inactive
Hira | DRSC18672 | 5.13e5 | 5.19e5 | 2.81e6 | 2.87e6 | inactive
Cyp6a18 | DRSC16632 | 3.76e5 | 2.84e5 | 2.77e6 | 3.08e6 | inactive
dgt4 | DRSC18659 | 3.55e5 | 3.60e5 | 4.91e6 | 2.93e6 | inactive
dgt4 | DRSC28573 | 5.09e5 | 5.64e5 | 9.54e5 | 1.33e6 | inactive
CG4597 | DRSC10432 | 78707 | 1.17e5 | 7.47e5 | 2.12e6 | inactive
Ugt316A1 | DRSC10376 | 2.51e5 | 1.49e5 | 2.81e6 | 2.05e6 | inactive
mspo | DRSC07652 | 89761 | 82919 | 2.83e6 | 2.83e6 | active
mspo | DRSC28194 | 9.09e5 | 1.05e6 | 1.80e6 | 1.29e6 | inactive
Tsp29Fa | DRSC03232 | 1.90e5 | 2.04e5 | 1.71e6 | 1.53e6 | inactive
Tsp29Fa | DRSC28522 | 3.79e5 | 6.98e5 | 9.52e5 | 1.82e6 | inactive

Sorted by “firefly reporter light, replicate 2” (ascending): 10 of the entries above
Target gene | DRSC id | firefly reporter light, replicate 1 | firefly reporter light, replicate 2 | Renilla control light, replicate 1 | Renilla control light, replicate 2 | activity call
Nep1 | DRSC18388 | 95232 | 96197 | 5.98e5 | 6.31e5 | inactive
eIF2Balpha | DRSC16332 | 1.92e5 | 1.16e5 | 1.13e6 | 6.85e5 | inactive
CG17030 | DRSC08503 | 1.48e5 | 2.18e5 | 2.20e6 | 2.61e6 | inactive
AsnRS-m | DRSC07010 | 56355 | 2.48e5 | 9.32e5 | 9.32e5 | inactive
Nep1 | DRSC26208 | 2.32e5 | 2.55e5 | 5.63e5 | 6.96e5 | inactive
psh | DRSC28534 | 3.04e5 | 3.32e5 | 6.66e5 | 1.24e6 | inactive
psh | DRSC19990 | 7.93e5 | 7.04e5 | 3.77e6 | 3.37e6 | inactive
Cyt-c1 | DRSC29221 | 7.11e5 | 7.04e5 | 1.24e6 | 1.18e6 | inactive
Cyt-c1 | DRSC10447 | 9.61e5 | 7.57e5 | 2.32e6 | 1.72e6 | inactive
CG17233 | DRSC23352 | 7.63e5 | 8.74e5 | 9.54e5 | 9.70e5 | inactive

The results go on.
Target gene | DRSC id | firefly reporter light, replicate 1 | firefly reporter light, replicate 2 | Renilla control light, replicate 1 | Renilla control light, replicate 2 | activity call
CG40160 + CR41243 | DRSC38711 | 9.25e5 | 6.10e5 | 2.18e6 | 1.80e6 | inactive
CG13375 | DRSC18621 | 2.52e5 | 2.21e5 | 2.41e6 | 2.64e6 | inactive
CG7551 | DRSC10876 | 2.08e5 | 1.75e5 | 2.49e6 | 2.47e6 | inactive
CG7551 | DRSC39274 | – | – | – | – | inactive
Yp2 | DRSC18732 | 1.24e5 | 1.38e5 | 7.32e5 | 7.33e5 | inactive
Yp2 | DRSC29289 | 5.93e5 | 5.54e5 | 1.66e6 | 1.13e6 | inactive
CG4438 | DRSC02746 | 1.09e5 | 80192 | 1.59e6 | 1.10e6 | inactive
CG4438 | DRSC25747 | 1.02e6 | 1.06e6 | 1.23e6 | 1.13e6 | inactive
CG14088 | DRSC10092 | 2.67e5 | 2.33e5 | 2.63e6 | 2.71e6 | inactive
Hug | DRSC16969 | 1.82e5 | 1.52e5 | 2.12e6 | 1.77e6 | inactive
Hug | DRSC29749 | 3.35e5 | 2.95e5 | 1.37e6 | 1.30e6 | inactive
Idgf4 | DRSC18675 | 2.10e5 | 2.11e5 | 2.33e6 | 2.61e6 | inactive
Idgf4 | DRSC24939 | 4.48e5 | 3.47e5 | 6.94e5 | 6.27e5 | inactive
Set | DRSC16861 | 80677 | 96353 | 6.59e5 | 8.05e5 | inactive
CG9400 | DRSC20182 | 94897 | 1.34e5 | 7.64e5 | 8.59e5 | inactive
mRpL43 | DRSC04508 | 2.61e5 | 2.75e5 | 1.28e6 | 2.22e6 | inactive
mRpL43 | DRSC22571 | 6.89e5 | 5.29e5 | 2.19e6 | 1.82e6 | inactive
CG10472 | DRSC09730 | 7.70e5 | 1.10e6 | 1.10e6 | 1.47e6 | inactive
CG10472 | DRSC25310 | 1.00e6 | 1.11e6 | 1.21e6 | 1.12e6 | inactive
CG31365 | DRSC15610 | 89448 | 1.14e5 | 1.16e6 | 1.27e6 | inactive
CG4951 | DRSC15682 | 76912 | 56687 | 5.83e5 | 3.87e5 | inactive
bcd + CR14578 | DRSC20984 | 2.11e5 | 1.93e5 | 4.85e5 | 4.61e5 | inactive
MBD-like | DRSC16996 | 2.06e5 | 2.58e5 | 3.62e6 | 4.02e6 | inactive
CG7785 | DRSC16311 | 92963 | 1.46e5 | 1.37e6 | 1.39e6 | inactive
CG10353 | DRSC19354 | 3.30e5 | 4.31e5 | 3.21e6 | 3.14e6 | inactive
CG10353 | DRSC29888 | 5.22e5 | 4.49e5 | 1.05e6 | 1.04e6 | inactive
ATPsynO | DRSC16780 | 43241 | 48943 | 6.13e5 | 4.81e5 | inactive
ATPsynO | DRSC26306 | 2.11e5 | 2.31e5 | 8.05e5 | 8.01e5 | inactive
CG17375 | DRSC02614 | 1.91e5 | 2.05e5 | 1.92e6 | 1.57e6 | inactive
CG17375 | DRSC29517 | 4.10e5 | 4.55e5 | 8.82e5 | 8.82e5 | inactive
